{"sequences": {"note": "By UniProt entry, the sequences of proteins in these tests, tags left out. Where a name states a change or a piece, a line headed by the entry shows the natural chain unless it says otherwise.", "UniProt Q86YP4": "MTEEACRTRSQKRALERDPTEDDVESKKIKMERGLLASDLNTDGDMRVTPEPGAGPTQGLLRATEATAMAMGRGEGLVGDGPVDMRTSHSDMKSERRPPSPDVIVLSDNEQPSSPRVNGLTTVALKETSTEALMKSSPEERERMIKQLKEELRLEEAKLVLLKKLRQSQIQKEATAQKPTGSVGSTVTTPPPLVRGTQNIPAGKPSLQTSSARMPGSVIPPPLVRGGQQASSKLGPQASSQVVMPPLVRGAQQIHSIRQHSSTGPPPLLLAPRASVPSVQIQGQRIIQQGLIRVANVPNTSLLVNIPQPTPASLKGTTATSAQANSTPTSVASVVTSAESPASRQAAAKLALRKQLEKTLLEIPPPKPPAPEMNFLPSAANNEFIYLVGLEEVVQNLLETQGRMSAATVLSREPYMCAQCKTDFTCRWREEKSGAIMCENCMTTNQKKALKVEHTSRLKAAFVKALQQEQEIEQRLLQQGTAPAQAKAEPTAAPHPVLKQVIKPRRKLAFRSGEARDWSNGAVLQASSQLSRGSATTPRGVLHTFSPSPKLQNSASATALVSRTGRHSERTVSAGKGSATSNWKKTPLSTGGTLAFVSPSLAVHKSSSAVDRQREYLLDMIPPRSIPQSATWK", "UniProt P51114, whole entry, looked up": "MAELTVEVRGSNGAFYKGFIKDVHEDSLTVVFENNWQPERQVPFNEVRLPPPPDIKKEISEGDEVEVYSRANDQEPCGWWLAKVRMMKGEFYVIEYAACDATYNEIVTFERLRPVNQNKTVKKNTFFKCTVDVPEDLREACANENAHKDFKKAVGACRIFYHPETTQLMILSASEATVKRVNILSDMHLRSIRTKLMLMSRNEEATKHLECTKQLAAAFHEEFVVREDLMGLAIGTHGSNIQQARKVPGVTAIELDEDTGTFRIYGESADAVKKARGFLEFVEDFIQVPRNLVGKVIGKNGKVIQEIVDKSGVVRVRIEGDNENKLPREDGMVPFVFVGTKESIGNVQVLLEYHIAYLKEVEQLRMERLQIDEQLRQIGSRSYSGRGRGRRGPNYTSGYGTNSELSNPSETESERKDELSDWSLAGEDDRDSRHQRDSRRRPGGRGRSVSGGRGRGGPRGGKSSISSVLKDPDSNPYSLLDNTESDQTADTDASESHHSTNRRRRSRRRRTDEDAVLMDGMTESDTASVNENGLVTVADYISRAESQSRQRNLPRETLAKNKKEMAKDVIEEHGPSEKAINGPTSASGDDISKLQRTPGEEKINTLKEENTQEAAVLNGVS", "UniProt Q86SF2": "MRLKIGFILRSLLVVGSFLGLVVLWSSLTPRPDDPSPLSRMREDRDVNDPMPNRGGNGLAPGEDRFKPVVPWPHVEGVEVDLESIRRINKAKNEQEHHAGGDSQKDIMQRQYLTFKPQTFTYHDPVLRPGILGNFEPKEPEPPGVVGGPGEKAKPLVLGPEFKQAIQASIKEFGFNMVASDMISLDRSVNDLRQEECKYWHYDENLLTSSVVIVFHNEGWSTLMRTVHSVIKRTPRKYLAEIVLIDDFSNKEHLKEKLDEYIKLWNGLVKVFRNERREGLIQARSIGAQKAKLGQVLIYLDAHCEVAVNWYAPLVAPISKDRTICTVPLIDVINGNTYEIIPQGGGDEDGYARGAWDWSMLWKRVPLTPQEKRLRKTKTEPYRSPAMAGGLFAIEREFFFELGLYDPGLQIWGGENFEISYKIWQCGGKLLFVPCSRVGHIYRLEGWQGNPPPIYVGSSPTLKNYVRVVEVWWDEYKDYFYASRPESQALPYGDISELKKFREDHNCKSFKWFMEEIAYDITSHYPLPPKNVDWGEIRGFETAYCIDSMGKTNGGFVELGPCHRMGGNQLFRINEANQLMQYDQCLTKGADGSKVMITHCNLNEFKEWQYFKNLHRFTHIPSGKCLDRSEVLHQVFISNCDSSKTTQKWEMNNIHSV", "UniProt Q9H2C0": "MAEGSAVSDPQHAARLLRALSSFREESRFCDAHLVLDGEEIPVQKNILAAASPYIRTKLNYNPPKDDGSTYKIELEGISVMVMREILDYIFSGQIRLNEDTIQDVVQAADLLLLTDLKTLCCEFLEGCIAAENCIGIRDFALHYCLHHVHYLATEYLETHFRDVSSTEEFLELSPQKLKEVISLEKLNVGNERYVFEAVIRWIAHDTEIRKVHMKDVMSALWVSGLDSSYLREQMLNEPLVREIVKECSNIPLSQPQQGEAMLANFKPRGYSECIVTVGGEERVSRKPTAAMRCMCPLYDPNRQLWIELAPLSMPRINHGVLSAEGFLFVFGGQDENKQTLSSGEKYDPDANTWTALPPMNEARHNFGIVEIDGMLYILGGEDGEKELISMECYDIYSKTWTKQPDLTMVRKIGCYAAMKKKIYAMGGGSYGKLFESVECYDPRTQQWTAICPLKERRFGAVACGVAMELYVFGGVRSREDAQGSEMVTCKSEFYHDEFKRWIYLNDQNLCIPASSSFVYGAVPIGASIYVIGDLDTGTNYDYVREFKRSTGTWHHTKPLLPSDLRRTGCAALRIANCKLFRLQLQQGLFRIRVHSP", "UniProt P30047": "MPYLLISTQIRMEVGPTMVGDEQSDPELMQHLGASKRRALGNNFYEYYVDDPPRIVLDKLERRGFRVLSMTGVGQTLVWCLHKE", "UniProt P51116, whole entry, looked up": "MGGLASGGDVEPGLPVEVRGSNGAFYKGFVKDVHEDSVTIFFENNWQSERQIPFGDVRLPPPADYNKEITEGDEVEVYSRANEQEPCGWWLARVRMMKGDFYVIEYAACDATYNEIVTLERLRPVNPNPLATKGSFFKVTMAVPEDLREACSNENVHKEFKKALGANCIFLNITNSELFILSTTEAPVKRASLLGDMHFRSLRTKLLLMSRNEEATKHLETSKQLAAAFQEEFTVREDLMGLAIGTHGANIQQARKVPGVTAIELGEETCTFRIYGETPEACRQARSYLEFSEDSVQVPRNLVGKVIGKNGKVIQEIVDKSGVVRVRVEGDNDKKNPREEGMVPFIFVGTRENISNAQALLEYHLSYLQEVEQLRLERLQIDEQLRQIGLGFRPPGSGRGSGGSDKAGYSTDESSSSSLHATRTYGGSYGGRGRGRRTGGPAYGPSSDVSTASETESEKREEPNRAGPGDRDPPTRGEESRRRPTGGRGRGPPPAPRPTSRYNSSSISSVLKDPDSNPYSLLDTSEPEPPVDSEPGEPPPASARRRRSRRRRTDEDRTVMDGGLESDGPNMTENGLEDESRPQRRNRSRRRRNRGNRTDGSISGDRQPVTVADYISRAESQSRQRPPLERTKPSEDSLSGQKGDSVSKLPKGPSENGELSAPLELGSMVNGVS", "UniProt Q13283, whole entry, looked up": "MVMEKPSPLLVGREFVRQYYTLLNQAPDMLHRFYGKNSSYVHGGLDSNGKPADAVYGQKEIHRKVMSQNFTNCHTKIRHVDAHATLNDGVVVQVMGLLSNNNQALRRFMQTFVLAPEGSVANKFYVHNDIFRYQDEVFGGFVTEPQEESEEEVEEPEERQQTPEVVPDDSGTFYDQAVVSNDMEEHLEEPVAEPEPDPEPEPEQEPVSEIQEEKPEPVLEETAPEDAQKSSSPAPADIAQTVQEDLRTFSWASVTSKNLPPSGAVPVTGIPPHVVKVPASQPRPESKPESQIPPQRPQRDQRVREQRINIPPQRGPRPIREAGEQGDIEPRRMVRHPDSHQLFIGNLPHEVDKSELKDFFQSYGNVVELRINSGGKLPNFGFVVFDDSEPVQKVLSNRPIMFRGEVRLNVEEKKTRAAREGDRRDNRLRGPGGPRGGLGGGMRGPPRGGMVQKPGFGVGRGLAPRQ", "UniProt O75223": "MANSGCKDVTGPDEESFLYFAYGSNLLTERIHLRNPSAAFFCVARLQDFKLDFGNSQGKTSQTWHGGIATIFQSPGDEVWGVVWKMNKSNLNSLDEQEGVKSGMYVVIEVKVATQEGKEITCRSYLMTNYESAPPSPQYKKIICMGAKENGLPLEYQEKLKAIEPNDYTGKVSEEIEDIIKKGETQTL", "UniProt Q9UET6": "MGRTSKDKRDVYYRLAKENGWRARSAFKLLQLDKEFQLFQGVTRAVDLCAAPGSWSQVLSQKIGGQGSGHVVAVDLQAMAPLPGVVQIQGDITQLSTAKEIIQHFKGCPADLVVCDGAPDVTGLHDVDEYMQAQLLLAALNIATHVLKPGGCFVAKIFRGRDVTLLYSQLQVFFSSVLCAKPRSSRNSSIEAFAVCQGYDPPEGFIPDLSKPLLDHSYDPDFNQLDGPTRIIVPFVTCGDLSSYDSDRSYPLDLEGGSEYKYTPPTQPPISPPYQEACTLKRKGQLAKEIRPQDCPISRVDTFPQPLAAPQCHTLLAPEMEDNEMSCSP", "UniProt Q14697": "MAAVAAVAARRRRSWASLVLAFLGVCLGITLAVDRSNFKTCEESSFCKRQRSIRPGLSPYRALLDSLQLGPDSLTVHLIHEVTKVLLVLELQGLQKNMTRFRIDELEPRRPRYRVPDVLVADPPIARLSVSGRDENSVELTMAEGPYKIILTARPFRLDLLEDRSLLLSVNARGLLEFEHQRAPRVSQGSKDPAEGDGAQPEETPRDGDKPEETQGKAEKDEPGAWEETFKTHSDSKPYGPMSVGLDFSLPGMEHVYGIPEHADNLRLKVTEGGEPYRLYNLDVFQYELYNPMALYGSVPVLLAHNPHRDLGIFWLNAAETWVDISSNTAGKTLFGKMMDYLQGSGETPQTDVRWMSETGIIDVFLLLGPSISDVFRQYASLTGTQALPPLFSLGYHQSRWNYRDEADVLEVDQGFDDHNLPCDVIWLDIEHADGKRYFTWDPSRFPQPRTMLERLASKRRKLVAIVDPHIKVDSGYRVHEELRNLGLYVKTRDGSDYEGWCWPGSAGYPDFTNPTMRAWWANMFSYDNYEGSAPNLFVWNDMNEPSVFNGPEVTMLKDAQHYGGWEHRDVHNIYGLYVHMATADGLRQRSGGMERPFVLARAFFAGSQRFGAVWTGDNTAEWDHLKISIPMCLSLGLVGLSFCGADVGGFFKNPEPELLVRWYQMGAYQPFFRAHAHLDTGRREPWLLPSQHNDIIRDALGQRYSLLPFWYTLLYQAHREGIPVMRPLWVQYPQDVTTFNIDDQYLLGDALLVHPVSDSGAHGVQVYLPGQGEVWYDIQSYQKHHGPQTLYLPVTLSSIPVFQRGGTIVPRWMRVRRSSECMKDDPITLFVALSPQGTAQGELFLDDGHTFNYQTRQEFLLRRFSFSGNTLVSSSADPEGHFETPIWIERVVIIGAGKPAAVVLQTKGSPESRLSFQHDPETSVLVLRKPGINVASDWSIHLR", "UniProt Q9UJY5": "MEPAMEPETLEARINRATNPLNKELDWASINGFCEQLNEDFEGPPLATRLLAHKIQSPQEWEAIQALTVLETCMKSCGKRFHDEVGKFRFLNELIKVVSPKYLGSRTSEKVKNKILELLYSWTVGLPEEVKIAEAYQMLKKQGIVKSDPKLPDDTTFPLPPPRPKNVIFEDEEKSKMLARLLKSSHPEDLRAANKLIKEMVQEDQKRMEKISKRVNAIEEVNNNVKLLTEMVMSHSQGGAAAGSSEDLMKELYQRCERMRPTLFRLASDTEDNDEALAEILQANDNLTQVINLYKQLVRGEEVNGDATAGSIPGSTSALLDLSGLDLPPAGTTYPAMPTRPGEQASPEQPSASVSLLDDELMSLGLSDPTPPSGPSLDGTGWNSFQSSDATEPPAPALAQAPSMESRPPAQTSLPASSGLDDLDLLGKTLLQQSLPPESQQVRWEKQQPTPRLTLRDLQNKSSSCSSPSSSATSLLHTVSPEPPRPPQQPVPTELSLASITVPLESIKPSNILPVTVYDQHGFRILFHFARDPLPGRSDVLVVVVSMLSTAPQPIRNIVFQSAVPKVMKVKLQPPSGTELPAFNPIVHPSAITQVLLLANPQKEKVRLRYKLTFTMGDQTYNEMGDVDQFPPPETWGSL", "UniProt Q96RP9": "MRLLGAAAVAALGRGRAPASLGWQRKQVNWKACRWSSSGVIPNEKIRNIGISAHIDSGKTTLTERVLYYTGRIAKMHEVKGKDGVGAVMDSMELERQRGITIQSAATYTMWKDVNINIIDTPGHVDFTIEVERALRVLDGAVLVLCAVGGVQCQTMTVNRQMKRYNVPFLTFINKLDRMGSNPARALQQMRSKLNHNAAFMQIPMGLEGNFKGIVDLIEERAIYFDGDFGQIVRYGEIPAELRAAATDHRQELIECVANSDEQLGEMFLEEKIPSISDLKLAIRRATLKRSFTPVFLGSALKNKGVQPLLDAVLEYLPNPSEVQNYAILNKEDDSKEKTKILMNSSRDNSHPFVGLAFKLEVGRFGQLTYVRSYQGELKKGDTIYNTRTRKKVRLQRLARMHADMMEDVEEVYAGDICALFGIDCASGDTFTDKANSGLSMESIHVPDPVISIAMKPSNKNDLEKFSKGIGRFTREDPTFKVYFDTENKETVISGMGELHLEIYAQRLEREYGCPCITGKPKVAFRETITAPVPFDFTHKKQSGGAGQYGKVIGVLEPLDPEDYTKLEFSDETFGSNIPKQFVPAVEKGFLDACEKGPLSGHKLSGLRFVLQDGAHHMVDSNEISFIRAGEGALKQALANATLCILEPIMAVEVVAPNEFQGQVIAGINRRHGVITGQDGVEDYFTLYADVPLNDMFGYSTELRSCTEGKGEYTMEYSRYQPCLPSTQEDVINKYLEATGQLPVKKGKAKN"}, "source": "the supplement of paper PMC10849652", "note": "Some of the results follow.", "data": [{"compound": "Cn1cc(-c2ccc3nnc(C(F)(F)c4ccc5ncccc5c4)n3n2)cn1", "experiment": "log2 fold change, soluble protein after heating vs DMSO (PISA); higher = thermal stabilisation; K562 cells, 10 uM, 30 min; active = over 0.2 and 3.5 SD of the protein, either way, in both replicates (recomputed)", "in_short": "(§1)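 Quantification of soluble protein used TMTpro 16plex LC-MS/MS, with channel sums equalised. Samples were the supernatant after 21,000xg for 90 min of pooled aliquots from K562 cells (2×10^6 cells/mL) treated with 10 μM compound for 30 min, heated for 3 min over 48°C-58°C, and extracted in PBS with 0.5% NP-40 at 4°C. Values, from duplicates, describe thermal stability against control samples on a log2 fold-change scale.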", "values": [{"target": "GCAT isoform 2 (UniProt O75600)", "log2 fold change": "inactive: -0.005"}, {"target": "GAR1 (UniProt Q9NY12)", "log2 fold change": "inactive: -0.045"}, {"target": "GATAD2A isoform 3 (UniProt Q86YP4)", "log2 fold change": "inactive: -0.021"}, {"target": "FXR1 (UniProt P51114)", "log2 fold change": "inactive: -0.253"}, {"target": "FYCO1 isoform 4 (UniProt Q9BQS8)", "log2 fold change": "inactive: 0.034"}, {"target": "G3BP2 (UniProt Q9UN86)", "log2 fold change": "inactive: -0.221"}, {"target": "GALNT7 (UniProt Q86SF2)", "log2 fold change": "inactive: -0.007"}, {"target": "GAN (UniProt Q9H2C0)", "log2 fold change": "inactive: 0.021"}, {"target": "FRG1 (UniProt Q14331)", "log2 fold change": "inactive: -0.028"}, {"target": "GGA3 (UniProt Q9NZ52)", "log2 fold change": "inactive: -0.021"}, {"target": "GCHFR (UniProt P30047)", "log2 fold change": "inactive: -0.142"}, {"target": "FUS (UniProt P35637)", "log2 fold change": "inactive: -0.01"}, {"target": "GALK2 (UniProt Q01415)", "log2 fold change": "inactive: 0.01"}, {"target": "GAMT (UniProt Q14353)", "log2 fold change": "inactive: -0.096"}, {"target": "FTH1 (UniProt P02794)", "log2 fold change": "inactive: 0.002"}, {"target": "GCLC (UniProt P48506)", "log2 fold change": "inactive: 0.032"}, {"target": "FUBP1 (UniProt Q96AE4)", "log2 fold change": "inactive: -0.049"}, {"target": "GAGE2A (UniProt Q6NT46)", "log2 fold change": "inactive: 0.014"}, {"target": "FXR2 (UniProt P51116)", "log2 fold change": "inactive: -0.259"}, {"target": "G3BP1 (UniProt Q13283)", "log2 fold change": "inactive: -0.097"}, {"target": "GEMIN4 (UniProt P57678)", "log2 fold change": "inactive: -0.081"}, {"target": "GGCT (UniProt O75223)", "log2 fold change": "inactive: -0.001"}, {"target": "FTSJ1 (UniProt Q9UET6)", "log2 fold change": "inactive: 0.045"}, {"target": "GALNT12 (UniProt Q8IXK2)", "log2 fold change": "inactive: -0.021"}, {"target": "GALNT5 (UniProt Q7Z7M9)", "log2 fold change": "inactive: 0.031"}, {"target": "GANAB isoform 2 (UniProt Q14697)", "log2 fold change": "inactive: 0.009"}, {"target": "GGA1 isoform 6 (UniProt Q9UJY5)", "log2 fold change": "inactive: 0"}, {"target": "GGH (UniProt Q92820)", "log2 fold change": "inactive: 0.009"}, {"target": "GALE (UniProt Q14376)", "log2 fold change": "inactive: 0.034"}, {"target": "GALNS (UniProt P34059)", "log2 fold change": "inactive: -0.074"}, {"target": "GHITM (UniProt Q9H3K2)", "log2 fold change": "inactive: 0.019"}, {"target": "G6PD isoform 2 (UniProt P11413)", "log2 fold change": "inactive: -0.01"}, {"target": "GALM (UniProt Q96C23)", "log2 fold change": "inactive: 0.021"}, {"target": "GFM1 (UniProt Q96RP9)", "log2 fold change": "inactive: 0.063"}]}, {"compound": "Cn1cncc1[C@@](N)(c1ccc(Cl)cc1)c1ccc2c(c1)c(-c1cccc(Cl)c1)cc(=O)n2C [tipifarnib]", "experiment": "log2 fold change, soluble protein after heating vs DMSO (PISA); higher = thermal stabilisation; K562 cells, 10 uM, 30 min; active = over 0.2 and 3.5 SD of the protein, either way, in both replicates (recomputed)", "in_short": "as §1", "values": [{"target": "GCAT isoform 2 (UniProt O75600)", "log2 fold change": "inactive: 0.119"}, {"target": "GAR1 (UniProt Q9NY12)", "log2 fold change": "inactive: 0.094"}, {"target": "GATAD2A isoform 3 (UniProt Q86YP4)", "log2 fold change": "inactive: 0.019"}, {"target": "FXR1 (UniProt P51114)", "log2 fold change": "inactive: 0.024"}, {"target": "FYCO1 isoform 4 (UniProt Q9BQS8)", "log2 fold change": "inactive: 0.012"}, {"target": "G3BP2 (UniProt Q9UN86)", "log2 fold change": "inactive: 0.08"}, {"target": "GALNT7 (UniProt Q86SF2)", "log2 fold change": "inactive: -0.032"}, {"target": "GAN (UniProt Q9H2C0)", "log2 fold change": "inactive: 0.034"}, {"target": "FRG1 (UniProt Q14331)", "log2 fold change": "inactive: 0.034"}, {"target": "GGA3 (UniProt Q9NZ52)", "log2 fold change": "inactive: -0.033"}, {"target": "GCHFR (UniProt P30047)", "log2 fold change": "inactive: -0.005"}, {"target": "FUS (UniProt P35637)", "log2 fold change": "inactive: 0.169"}, {"target": "GALK2 (UniProt Q01415)", "log2 fold change": "inactive: -0.041"}, {"target": "GAMT (UniProt Q14353)", "log2 fold change": "inactive: 0"}, {"target": "FTH1 (UniProt P02794)", "log2 fold change": "inactive: 0.037"}, {"target": "GCLC (UniProt P48506)", "log2 fold change": "inactive: -0.018"}, {"target": "FUBP1 (UniProt Q96AE4)", "log2 fold change": "inactive: -0.138"}, {"target": "GAGE2A (UniProt Q6NT46)", "log2 fold change": "inactive: 0.032"}, {"target": "FXR2 (UniProt P51116)", "log2 fold change": "inactive: 0.042"}, {"target": "G3BP1 (UniProt Q13283)", "log2 fold change": "inactive: 0.053"}, {"target": "GEMIN4 (UniProt P57678)", "log2 fold change": "inactive: 0.264"}, {"target": "GGCT (UniProt O75223)", "log2 fold change": "inactive: -0.039"}, {"target": "FTSJ1 (UniProt Q9UET6)", "log2 fold change": "inactive: -0.015"}, {"target": "GALNT12 (UniProt Q8IXK2)", "log2 fold change": "inactive: -0.009"}, {"target": "GALNT5 (UniProt Q7Z7M9)", "log2 fold change": "inactive: -0.02"}, {"target": "GANAB isoform 2 (UniProt Q14697)", "log2 fold change": "inactive: 0.042"}, {"target": "GGA1 isoform 6 (UniProt Q9UJY5)", "log2 fold change": "inactive: -0.094"}, {"target": "GGH (UniProt Q92820)", "log2 fold change": "inactive: 0.062"}, {"target": "GALE (UniProt Q14376)", "log2 fold change": "inactive: -0.033"}, {"target": "GALNS (UniProt P34059)", "log2 fold change": "inactive: -0.124"}, {"target": "GHITM (UniProt Q9H3K2)", "log2 fold change": "inactive: -0.068"}, {"target": "G6PD isoform 2 (UniProt P11413)", "log2 fold change": "inactive: -0.043"}, {"target": "GALM (UniProt Q96C23)", "log2 fold change": "inactive: 0.006"}, {"target": "GFM1 (UniProt Q96RP9)", "log2 fold change": "inactive: -0.065"}]}, {"compound": "FC(F)(F)c1ccc(/C=C/c2nc(COc3ccc(CCCCn4ccnn4)cc3)co2)cc1 [mubritinib]", "experiment": "log2 fold change, soluble protein after heating vs DMSO (PISA); higher = thermal stabilisation; K562 cells, 10 uM, 30 min; active = over 0.2 and 3.5 SD of the protein, either way, in both replicates (recomputed)", "in_short": "as §1", "values": [{"target": "GCAT isoform 2 (UniProt O75600)", "log2 fold change": "inactive: -0.077"}, {"target": "GAR1 (UniProt Q9NY12)", "log2 fold change": "inactive: -0.084"}, {"target": "GATAD2A isoform 3 (UniProt Q86YP4)", "log2 fold change": "inactive: -0.033"}, {"target": "FXR1 (UniProt P51114)", "log2 fold change": "inactive: -0.178"}, {"target": "FYCO1 isoform 4 (UniProt Q9BQS8)", "log2 fold change": "inactive: -0.087"}, {"target": "G3BP2 (UniProt Q9UN86)", "log2 fold change": "inactive: -0.09"}, {"target": "GALNT7 (UniProt Q86SF2)", "log2 fold change": "inactive: 0.045"}, {"target": "GAN (UniProt Q9H2C0)", "log2 fold change": "inactive: 0.029"}, {"target": "FRG1 (UniProt Q14331)", "log2 fold change": "inactive: 0.009"}, {"target": "GGA3 (UniProt Q9NZ52)", "log2 fold change": "inactive: -0.006"}, {"target": "GCHFR (UniProt P30047)", "log2 fold change": "inactive: 0.048"}, {"target": "FUS (UniProt P35637)", "log2 fold change": "inactive: -0.086"}, {"target": "GALK2 (UniProt Q01415)", "log2 fold change": "inactive: 0.02"}, {"target": "GAMT (UniProt Q14353)", "log2 fold change": "inactive: 0.094"}, {"target": "FTH1 (UniProt P02794)", "log2 fold change": "inactive: 0.02"}, {"target": "GCLC (UniProt P48506)", "log2 fold change": "inactive: 0.055"}, {"target": "FUBP1 (UniProt Q96AE4)", "log2 fold change": "inactive: 0.107"}, {"target": "GAGE2A (UniProt Q6NT46)", "log2 fold change": "inactive: 0.009"}, {"target": "FXR2 (UniProt P51116)", "log2 fold change": "inactive: -0.204"}, {"target": "G3BP1 (UniProt Q13283)", "log2 fold change": "inactive: -0.05"}, {"target": "GEMIN4 (UniProt P57678)", "log2 fold change": "inactive: -0.281"}, {"target": "GGCT (UniProt O75223)", "log2 fold change": "inactive: -0.005"}, {"target": "FTSJ1 (UniProt Q9UET6)", "log2 fold change": "inactive: 0.077"}, {"target": "GALNT12 (UniProt Q8IXK2)", "log2 fold change": "inactive: -0.124"}, {"target": "GALNT5 (UniProt Q7Z7M9)", "log2 fold change": "inactive: 0.056"}, {"target": "GANAB isoform 2 (UniProt Q14697)", "log2 fold change": "inactive: -0.071"}, {"target": "GGA1 isoform 6 (UniProt Q9UJY5)", "log2 fold change": "inactive: 0.022"}, {"target": "GGH (UniProt Q92820)", "log2 fold change": "inactive: 0.039"}, {"target": "GALE (UniProt Q14376)", "log2 fold change": "inactive: 0.123"}, {"target": "GALNS (UniProt P34059)", "log2 fold change": "inactive: 0.013"}, {"target": "GHITM (UniProt Q9H3K2)", "log2 fold change": "inactive: 0.07"}, {"target": "G6PD isoform 2 (UniProt P11413)", "log2 fold change": "inactive: 0.004"}, {"target": "GALM (UniProt Q96C23)", "log2 fold change": "inactive: 0.007"}, {"target": "GFM1 (UniProt Q96RP9)", "log2 fold change": "inactive: -0.085"}]}]}
